Results published in US7820642B2, “Nandrolone 17β-carbonates” (The United States of America as represented by the …, priority 2005, dated 2010).

System: castrate Sprague-Dawley male rats
Experiment: Androgenic activity, Hershberger test (ventral prostate weight)
Format: in vivo, rat
Settings: oral Hershberger test; Y against log (x)
Experimental: The androgenic activity was tested as follows (see, Hershberger et al., Proc. Soc. Exptl. Biol. Med., 83: 175-180 (1953)). Immature (approximately 21 day old) male rats of the Sprague-Dawley strain were orchidectomized under METOFANE® anesthesia and randomly assigned to groups of ten animals for each dose level of test material and vehicle controls. Animals were maintained under standard conditions of housing and had free access to food and water. Illumination was controlled for 14-hour periods of light and 10 hours of darkness. Test compounds were dissolved in 10% ethanol/sesame oil and administered by gavage (oral) or subcutaneous injection daily for seven consecutive days starting on the day of surgery. Animals were sacrificed 24 hours after the last dose and the ventral prostate and seminal vesicles excised, cleaned of fat and connective tissue, blotted on moist filter paper and weighed to the nearest 0.1 mg. Ventral prostate weight was used as the endpoint because ventral prostate is the more sensitive organ to androgenic stimulation.
Statistical analysis was performed by conventional methods using a PROPHET data management system operating on SUN Microsystems OS 4.1.1 (see e.g., Bliss, Cl (1952) The Statistics of Bioassay, New York, Academic Press; Hollister, C (1988), Nucleic Acids Research, 16:1873-1875.
Each data point represents the mean (n=10) and standard error of the mean (SEM) prostate weight for each dose level. The potency ratio and 95% confidence index are set forth below.

SMILES	Fitted Lines (ventral prostate weight versus log dose)
C[C@]12CCC(=O)C=C1CC[C@@H]1[C@@H]2CC[C@@]2(C)[C@H]1CC[C@]2(C)O [CDB-110B, methyltestosterone, reference compound]	Y = 27.45 log (x) + 31.77
CCCCCCCCCCOC(=O)O[C@H]1CC[C@H]2[C@H]3[C@H]([C@@H](C)C[C@]12C)[C@H]1CCC(=O)C=C1C[C@H]3C [CDB-4719, 17β-Decyloxycarbonyloxy-7α,11β-dimethylestr-4-en-3-one]	Y = 44.41 log (x) + 53.7
COC(=O)O[C@H]1CC[C@H]2[C@H]3[C@H]([C@@H](C)C[C@]12C)[C@H]1CCC(=O)C=C1C[C@H]3C [CDB-4718, 17β-Methoxycarbonyloxy-7α,11β-dimethylestr-4-en-3-one]	Y = 31.31 log (x) + 41.95
